The test concerns the target T1, GST-MD36N4 protein (human MD36 C terminal part fused to glutathione S-transferase) (human) (UniProt Q9Y613).
T1 sequence: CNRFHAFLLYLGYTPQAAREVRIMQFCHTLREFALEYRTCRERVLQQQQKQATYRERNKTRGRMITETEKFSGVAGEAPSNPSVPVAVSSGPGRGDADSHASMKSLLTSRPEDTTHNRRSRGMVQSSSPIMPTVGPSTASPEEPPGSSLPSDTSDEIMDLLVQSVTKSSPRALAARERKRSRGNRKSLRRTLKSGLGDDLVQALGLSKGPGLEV
As to the kind of experiment: plate binding test: GST-MD36N4 coated on EIA plate, IRAP-His added, anti-Penta-His antibody and ECL detection.

These are yes or no findings as the source states them, for the method shown. Some entries that bind do so weakly or less than the wild type. Where a sequence is shown, tags or fusion partners need not be part of it.

B1: IRAP-His (IRAP cytoplasmic domain, residues 1-109, linked to His-tag) (protein, not shown: small tags and cut ends)
chain: METFTNDRLQLPRNMIENSMFEEEPDVVDLAKEPCLHPLEPDEVEYEPRGSRLLVRGLGEHEMDEDEEDYESSAKLLGMSFMNRSSGLRNSATGYRQSPDGTCSVPSAR
On to B1, for which the binding entry is “binds”.

These data come from US20040072742A1.
